# According to patent US12582720B2, “Compound for preventing or treating lipid metabolism-related diseases” (Fudan University, priority 2020, dated 2026):
# “Also recorded” adds a separate entry of the source.
# Test system: lipid droplet in MEF or SH-SY5Y cells
# Assay: Verification of BODIPY lipid droplet detection in the presence of high compound concentration
# Type: cell-based
# Conditions: 50 μM Sudan IV, OA-induced cells, compared with DMSO control
structure (smiles),measurement,value
"Cc1ccccc1/N=N/c1ccc(/N=N/c2c(O)ccc3ccccc23)c(C)c1 [Sudan IV, reference compound]",lipid droplet BODIPY signal in the presence of the compound,no decrease; also recorded: no signal change
